The values below come from PubChem BioAssay AID493014 (National Center for Advancing Translational Sciences (NCATS), 2011).

This is one part of the list. The main result of the screen is listed elsewhere. These columns were measured beside it and carry no call. The list favours compounds with an active or inconclusive main result. The note in brackets gives the kind of curve behind each potency; many fits are weak.

The test can be described thus: qHTS Assay to Find Inhibitors of Chronic Active B-Cell Receptor Signaling. To be noted: ABC-DLBCL IkBa-CBG/CBR reporter, luminescence ratio (green luciferase fused to IkBa over red control in TMD8 lymphoma cells), 4 h. The method, boiled down: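 Doxycycline induced both beetle luciferases in TMD8 lymphoma cells; IKK-driven degradation limits the IkappaBalpha-fused green signal, while red luminescence normalises for cell number and nonspecific effects. Compounds tested up to 46 uM, 4 hrs.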
(In general: Quantitative high-throughput screening tests each substance at several concentrations.)

The mark [1] stands for this setting: measured here: CBR red luminescence, cell number.
[2] abbreviates: measured here: IkBa-CBG green luminescence.

The AC50 is the concentration giving half of the maximal activity seen. As to `CCn1cc(C(=O)NCc2ccco2)c(=O)c2ccc(C)nc21`, under setting [1], the AC50 is 3.55 µM [falling, partial curve, poor fit].

For `CCCNC(=O)C(Cc1ccccc1)NS(=O)(=O)c1ccc2c(c1)CCC(=O)N2` (configuration not stated), the AC50 under setting [1] was 5.8 µM [rising, single point].

As to `NC(=O)c1nsc(C(=O)N(c2cccc(F)c2)C(C(=O)NCc2ccccc2)c2ccc(O)cc2)c1N` (configuration not stated), the AC50 under setting [1] is 2.51 µM [rising, partial curve].

For the compound `CCOCCn1c(CN2CCc3ccccc3C2)nc2c1c(=O)n(C)c(=O)n2C`, the AC50 under setting [1] was 0.631 µM [rising, partial curve, poor fit].

As for `O=C(O)CSCC(=O)N1CCc2c([nH]c3ccccc23)C1C(F)(F)F` (configuration not stated), the AC50 under setting [1] was 35.5 µM [rising, single point].

Consider `CS(=O)(=O)C1=NSC2=NC(=O)/C(=C\c3cccn3-c3ccc(Cl)cc3)C(=N)N21`, for which the concentration at half-maximal activity (AC50) under setting [1] was 23.1 µM [rising, single point].

On to `CSc1nc(-c2ccccc2F)c(C#N)c(=O)n1C`, for which the AC50 under setting [1] was 31.6 µM [falling, single point].

For the compound `CCCC(=O)Nc1ccc(C(=O)Nc2nc(CC(=O)OCC)cs2)cc1`, the AC50 under setting [1] was 29.1 µM [falling, single point].

`CCOC(=O)N1CCN(S(=O)(=O)c2ccc(OC)c(Cl)c2Cl)CC1`: the AC50 under setting [1] was 6.51 µM [rising, single point].

On to `COc1ccc(S(=O)(=O)n2oc(=O)cc2-c2ccccc2)cc1`, for which the AC50 under setting [1] was 16.4 µM [rising, partial curve, poor fit].

With `O=C(Nc1ccc(Cl)cn1)c1cccc(S(=O)(=O)N2CCCCC2)c1`, the AC50 under setting [1] was 0.355 µM [falling, full curve, poor fit].

As to `COc1ccc(-c2cc(C(F)(F)F)nc(S(=O)(=O)CCCC(=O)Nc3cccc(O)c3)n2)cc1OC`, the AC50 by setting is: under setting [1], 10 µM [falling, partial curve]; under setting [2], 35.5 µM [rising, partial curve, poor fit].

On to `CC(Sc1nn(-c2ccc(F)cc2)c(=S)s1)C(=O)c1c(N)n(C)c(=O)n(C)c1=O` (configuration not stated), for which, under setting [1], the AC50 is 32.6 µM [falling, single point].

For `Cc1cccc(Nc2nc3ccccc3n3nnnc23)c1`, the AC50 under setting [1] was 0.282 µM [rising, full curve].

Turning to `COc1ccccc1N1CCN(C(=O)c2oc3c(c2C)C(=O)CC(C)(C)C3)CC1`, under setting [1], the AC50 was 35.5 µM [falling, partial curve, poor fit].

As for `COc1cc(NC(=O)c2cc(-c3cccs3)on2)cc(OC)c1OC`, the AC50 under setting [1] is 22.4 µM [falling, single point].

On to `CCOc1ccc(S(=O)(=O)NCCc2sc3nc(-c4ccc(F)cc4)nn3c2C)cc1`, for which the AC50 under setting [1] was 22.4 µM [falling, single point].

In the case of `COCCCn1c(SCC(N)=O)nnc1-c1ccccc1`, the AC50 under setting [1] was 28.2 µM [falling, single point].

`COC(=O)c1cc(=O)n(Cc2cccs2)c(=Nc2ccccc2)s1`: under setting [1], the AC50 was 4.47 µM [falling, partial curve].

On to `N#Cc1c(N2CCCCC2)nc(N)c2c(N)nc3c(c12)CC(c1ccccc1)O3` (configuration not stated), for which the AC50 under setting [1] is 0.794 µM [falling, full curve].

For the compound `NC(N)=NC(N)=NCCc1ccccc1`, under setting [1], the AC50 is 3.16 µM [rising, partial curve, poor fit].

As for `O=C(N/N=C/c1cccc(O)c1)c1ccccc1O`, under setting [1], the AC50 is 1 µM [falling, full curve, poor fit].

As to `CSCCNC(=O)c1ccc2nc(C3CCCCC3)oc2c1`, under setting [1], the AC50 is 35.5 µM [rising, single point].

In the case of `c1ccc2cc(CCCc3cc4ccccc4cn3)ncc2c1`, the AC50 under setting [1] is 0.517 µM [rising, full curve, poor fit].

Take `COc1ccccc1N1CCN(Cc2ccsc2)CC1`: the AC50 under setting [1] is 7.94 µM [rising, partial curve, poor fit].

Consider `CC1CC(=O)Nc2cc([N+](=O)[O-])ccc2N1` (configuration not stated), for which the AC50 under setting [1] was 39.8 µM [rising, partial curve, poor fit].

Regarding `C=CCN1C(=O)C(=O)N(CC(=O)c2ccc3c(c2)CCCC3)C1=O`, the AC50 under setting [1] was 14.6 µM [rising, partial curve, poor fit].

For `O=C(c1cnn2ccccc12)N1CCc2ccccc21`, the AC50 under setting [1] is 14.6 µM [falling, partial curve, poor fit].

Turning to `N#C/C(=C\c1cn(CCOc2ccccc2)c2ccccc12)C(=O)NCc1cccs1`, the AC50 under setting [1] is 7.31 µM [rising, partial curve, poor fit].

As to `O=C(c1ccc2ncsc2c1)N1CCN(c2ccccc2Cl)CC1`, the AC50 under setting [1] is 10 µM [falling, partial curve, poor fit].

For the compound `Cc1nc(NC(=O)c2ccccc2)sc1Cc1ccc2c(c1)OCO2`, under setting [1], the AC50 is 8.2 µM [falling, partial curve].

Take `COc1ccc(Cl)cc1NC(=S)NC(=O)c1ccco1`: the AC50 under setting [1] was 3.26 µM [rising, full curve, poor fit].

For the compound `COc1ccc(OC)c(CNc2c(C=O)c(=O)[nH]c3ccccc23)c1`, the AC50 under setting [1] is 35.5 µM [falling, single point].

Regarding `O=C1N=C(N2CCc3ccccc3C2)S/C1=C\c1cccc(O)c1`, the AC50 under setting [1] is 20.6 µM [falling, single point].

With `Cc1ccc2nsnc2c1NC(=O)COc1ccccc1F`, under setting [1], the AC50 was 2.24 µM [rising, full curve, poor fit].

On to `O=C(CCCn1c(=O)c2ccccc2n(Cc2cccc(F)c2)c1=O)NC1CCN(Cc2ccccc2)CC1`, for which the AC50 under setting [1] is 11.2 µM [falling, single point].

Take `CCSc1ccccc1C(=O)N1CCCC1`: the AC50 under setting [1] was 18.4 µM [rising, partial curve, poor fit].

As to `O=C1Nc2ccccc2C1=Nc1ccc(S(=O)(=O)Nc2nccs2)cc1`, the AC50 under setting [1] was 3.98 µM [rising, partial curve, poor fit].

For `Cc1cccc(OCCCC(=O)Nc2nc3ccccc3[nH]2)c1`, under setting [1], the AC50 is 11.2 µM [rising, partial curve].

Take `CCOC(=O)O[C@]1(C(=O)COC(=O)CC)CC[C@H]2[C@@H]3CCC4=CC(=O)C=C[C@]4(C)[C@H]3[C@@H](O)C[C@@]21C`: the AC50 under setting [1] is 0.00517 µM [rising, full curve, poor fit].

Take `O=C(Nc1nccs1)c1ccc2ccccc2n1`: the AC50 under setting [1] is 10 µM [falling, partial curve, poor fit].

Regarding `COCCNC(=O)Cn1cnc2sc(C)c(S(=O)(=O)N3CCC(C)CC3)c2c1=O`, the AC50 under setting [1] was 2.82 µM [falling, single point].

In the case of `COCCn1c(-c2ccccc2Cl)nc2c(c(=O)c3ccccc3n2C)c1=O`, the AC50 under setting [1] was 1.84 µM [rising, partial curve, poor fit].

Consider `Cc1ccc(-c2cc3ccccc3nc2N2CCOCC2)cc1`, for which the AC50 under setting [1] is 2.24 µM [rising, partial curve, poor fit].

Regarding `CCCCOc1ccc(-c2nn(-c3ccccc3)cc2C2NC(=O)NC(C)=C2C(=O)OC)cc1` (configuration not stated), under setting [1], the AC50 was 3.16 µM [rising, single point].

Turning to `Cc1cc(=O)oc2cc(OCC(=O)Nc3nccs3)ccc12`, the AC50 under setting [1] is 8.91 µM [falling, partial curve].

As to `Cc1nc(NC2=NCN(Cc3cccnc3)CN2)nc2ccccc12`, the AC50 under setting [1] is 11.2 µM [falling, partial curve, poor fit].

For the compound `O=C(CSc1nnnn1C1CCCCC1)N1c2ccccc2Sc2ccccc21`, the AC50 under setting [1] is 18.4 µM [falling, single point].

Regarding `Cc1nc(SCC(=O)NCc2ccccc2)c2oc3ccccc3c2n1`, the AC50 under setting [1] was 2.91 µM [rising, single point].

On to `N#Cc1ccc(COC(=O)c2cccnc2Cl)cc1`, for which the AC50 under setting [1] is 10 µM [rising, partial curve, poor fit] and the AC50 under setting [2] was 35.5 µM [falling, partial curve, poor fit].

Turning to `S=c1[nH]nc(-c2cccc(Cl)c2)n1/N=C/c1ccc(-c2ccccc2Br)o1`, under setting [1], the AC50 was 17.8 µM [rising, single point].

Turning to `O=C(Nc1ccc(F)cc1)Nc1ccc(N2CCCC2)c(S(=O)(=O)Nc2ccccc2Cl)c1`, the AC50 under setting [1] was 3.26 µM [falling, full curve].

Turning to `Cc1ccc2c(c1)N(CC(=O)NCc1ccco1)C(=O)C(C(C)C)O2` (configuration not stated), the AC50 under setting [1] is 1.58 µM [rising, single point].

For `COc1ccc(Cl)cc1NC(=O)c1c(NCc2ccc(C)o2)sc2c1CCCCC2`, under setting [1], the AC50 is 35.5 µM [falling, single point].

In the case of `Cc1cccc(N(CC(=O)NC2CCCCC2)C(=O)CCCC(=O)Nc2ccccn2)c1`, under setting [1], the AC50 is 23.1 µM [falling, partial curve].

Consider `Cc1ccc(S(=O)(=O)c2cnc(-c3ccccc3)nc2N2CCCCC2)cc1`, for which the AC50 under setting [1] is 1.12 µM [rising, full curve, poor fit].

As to `COc1cc([N+](=O)[O-])cc(/C=N/NC(=O)c2cccnc2)c1O`, the AC50 is 5.62 µM [falling, full curve] under setting [1] and 4.47 µM [rising, partial curve, poor fit] under setting [2].

Take `COc1ccccc1C(=O)n1nc(-c2cccnc2)nc1N`: under setting [1], the AC50 is 1.64 µM [falling, full curve].

As to `Cc1cccc(NC(=S)NCc2ccccn2)c1`, the AC50 under setting [2] is 25.1 µM [falling, single point].

Consider `O=C(Nc1ccccc1C(=O)NC(Cc1ccc(O)cc1)C(=O)O)c1ccccc1` (configuration not stated), for which the AC50 under setting [1] is 20 µM [falling, single point].

With `COc1ccc(C)cc1NC(=O)CN1CCN(c2ccccc2F)CC1`, under setting [1], the AC50 was 29.1 µM [rising, single point].

For the compound `CC(C)C[C@H](CO)Nc1nc(Nc2cccc(Cl)c2)c2ncn(C(C)C)c2n1`, the AC50 reads like this: under setting [1], 10 µM [falling, partial curve]; under setting [2], 17.8 µM [rising, single point].

For `COc1cc2c(C(=O)Nc3ccccc3F)cn(C)c(=O)c2cc1OC`, the AC50 under setting [1] is 0.0891 µM [rising, full curve, poor fit].
